The values below come from publication PMC11421376.

Common to all, as to assay: pull-down; co-precipitation from infected HeLa cells (90 min infection): SBP-tagged translocated EspH precipitated from ~5 mg lysate with streptavidin agarose beads, 3 hrs at 4°C; lysis buffer 50 mM Tris pH 7.4, 150 mM NaCl, 0.5% NP-40; Rabs detected by immunoblot with anti-Rab or anti-tag antibodies; also done in Control-KO and Rab8a-KO1 HeLa cells
Assay [1] deals with EspH K41A with C-terminal 6×His-SBP, translocated from EPEC-ΔespH/pEspH_(K41A) (enteropathogenic E. coli (EPEC)).
The target in assay [2] is EspH E37A with C-terminal 6×His-SBP, translocated from EPEC-ΔespH/pEspH_(E37A) (enteropathogenic E. coli (EPEC)).
Assay [3] deals with EspH K106R with C-terminal 6×His-SBP, translocated from EPEC-ΔespH/pEspH_(K106R) (enteropathogenic E. coli (EPEC)).

Results are given in words; binding and its absence hold for the method and conditions named. Binding seen in cells or lysates may run through a third protein. For part of these data: Binding can be weak; no strength is given. Where a sequence is shown, tags or fusion partners need not be part of it.

B1: eGFP-Rab3a wild type, ectopically expressed (protein, UniProt P20336 1-220)
chain: MASATDSRYGQKESSDQNFDYMFKILIIGNSSVGKTSFLFRYADDSFTPAFVSTVGIDFKVKTIYRNDKRIKLQIWDTAGQERYRTITTAYYRGAMGFILMYDITNEESFNAVQDWSTQIKTYSWDNAQVLLVGNKCDMEDERVVSSERGRQLADHLGFEFFEASAKDNINVKQTFERLVDVICEKMSESLDTADPAVTGAKQGPQLSDQQVPPHQDCAC
For the molecule B1, the binding result is given as “no binding” in assay [1], “no binding” in assay [2] and “binds” in assay [3].
